Data reported in the supplement of paper PMC6078165.

System: BT20
Assay: relative JC-1 red fluorescence (viability) vs pre-drug, coculture with fibroblast (fraction); higher = more viable cancer cells
Settings: 100 µM
Method: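 JC-1 labelled TNBC cells cocultured 1:1 (1,500 cells each) with CellTrace Violet stained primary or stromal fibroblasts in 384-well plates in FluoroBrite medium, treated with one of 42 anticancer drugs at 0.1, 1, 10 or 100 uM. JC-1 red fluorescence (mitochondrial integrity in cancer cells only) was read by plate reader every 8 h for 72 h. Values are normalised to each well's pre-drug value. The stock of one drug was tenfold lower, so its dose labels may be too high.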

O=C(O)C1(C(=O)O)CCC1.[NH2-].[NH2-].[Pt+2] [Carboplatin]
relative JC-1 red fluorescence
Settings | 8 h | 16 h | 24 h | 32 h | 40 h | 48 h | 56 h | 64 h | 72 h
coculture fibroblast: C12385 | 0.85982 | 0.8107 | 0.787 | 0.726 | 0.671 | 0.632 | 0.603 | 0.572 | 0.541
coculture fibroblast: H6013 | 0.831 | 0.81 | 0.832 | 0.779 | 0.813 | 0.742 | 0.869 | 0.906 | 0.888
coculture fibroblast: H6019 | 0.852 | 0.803 | 0.802 | 0.752 | 0.721 | 0.703 | 0.654 | 0.639 | 0.629
coculture fibroblast: H6076 | 0.948 | 0.88 | 0.8279 | 0.788 | 0.764 | 0.734 | 0.734 | 0.731 | 0.709
coculture fibroblast: H6231 | 0.945 | 0.859 | 0.774 | 0.707 | 0.641 | 0.589 | 0.55 | 0.521 | 0.496
coculture fibroblast: HADF | 0.931 | 0.884 | 0.845 | 0.765 | 0.749 | 0.83 | 0.725 | 0.762 | 0.795
coculture fibroblast: HCFa | 0.931 | 0.924 | 0.888 | 0.818 | 0.742 | 0.733 | 0.676 | 0.731 | 0.756
coculture fibroblast: HCPF | 0.95739 | 0.869 | 0.80716 | 0.76 | 0.7094 | 0.6711 | 0.6207 | 0.599 | 0.568
coculture fibroblast: HHSteC | 0.89143 | 0.863 | 0.8509 | 0.791 | 0.747 | 0.711 | 0.691 | 0.674 | 0.65
coculture fibroblast: HMF | 0.949 | 0.843 | 0.753 | 0.693 | 0.635 | 0.563 | 0.501 | 0.466 | 0.427
coculture fibroblast: HPFa | 0.918 | 0.92 | 0.79 | 0.865 | 0.841 | 0.802 | 0.784 | 0.761 | 0.721
coculture fibroblast: HUF | 0.877 | 0.804 | 0.782 | 0.695 | 0.633 | 0.58 | 0.552 | 0.54 | 0.524
coculture fibroblast: Hs5 | 0.9928 | 0.903 | 0.8366 | 0.79603 | 0.757 | 0.692 | 0.6514 | 0.643 | 0.613
coculture fibroblast: Hs27A | 0.913 | 0.9786 | 0.965 | 0.9157 | 0.8941 | 0.9102 | 0.927 | 0.9407 | 0.9
coculture fibroblast: Hs343T | 0.989 | 0.874 | 0.767 | 0.674 | 0.567 | 0.469 | 0.368 | 0.313 | 0.256
coculture fibroblast: WS1 | 0.8312 | 0.785 | 0.762 | 0.681 | 0.617 | 0.576 | 0.535 | 0.525 | 0.5068

Values are relative to the signal before dosing, not to a vehicle control; the signal also falls without drug.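 Labels refer to human fibroblasts, largely primary: uterine (C12385, HUF), lung (H6013), bone (Hs27A), adrenal (HADF), skin (WS1), plus mammary HMF and breast cancer-associated Hs343T. Cancer lines are basal-like or mesenchymal-like triple-negative breast cancer. The paper counts as hits responses shifting over 3x the replicate standard deviation. The tissue of the other fibroblasts is not given here.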
